“And” between values parts separate entries of the source, which are not always exact repeats. Equal values may be shown once. Some of the results follow. The main result of the screen is listed elsewhere. These columns were measured beside it and carry no call. The list favours compounds with an active or inconclusive main result. Words in brackets tell the shape of the fitted curve; partial curves, single points and poor fits give uncertain potencies.
Assay: qHTS Assay to Find Inhibitors of Chronic Active B-Cell Receptor Signaling
Conditions: ABC-DLBCL IkBa-CBG/CBR reporter, luminescence ratio (green luciferase fused to IkBa over red control in TMD8 lymphoma cells), 4 h
How it was run: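 TMD8 human ABC-DLBCL cells with doxycycline-inducible IκBα–green luciferase fusion and unfused red luciferase, in 0.5% FBS medium; compounds up to 46 uM, 4 h at 37C. Green/red luminescence ratio, filter-overlap corrected, fitted to concentration-response curves.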

[1] = measured here: CBR red luminescence, cell number
[2] = measured here: IkBa-CBG green luminescence

SMILES	AC50 [1]	AC50 [2]
COCC(C)OC(=O)c1c(N)n(Cc2ccco2)c2nc3ccccc3nc12 (configuration not stated)	1.58 µM [falling, partial curve, poor fit]	–
CCCNC(=O)c1c(N)n(Cc2ccc3c(c2)OCO3)c2nc3ccccc3nc12	4.11 µM [falling, partial curve, poor fit]	–
CCN(CC)c1ccc(/C=C(\C#N)C(N)=O)cc1	12.6 µM [rising, partial curve, poor fit]	–
CCCCOP(=O)(c1ccc(N(C)C)cc1)C(O)c1ccc(C(C)C)cc1 (configuration not stated)	12.6 µM [falling, partial curve]	–
COc1nc2ccccc2c(=O)n1-c1ccc(Cl)cc1	29.1 µM [rising, single point]	–
COc1ccccc1NC(=O)COC(=O)c1cn(C)c2ccccc12	3.26 µM [falling, partial curve]	–
Cc1nn(Cc2ccccc2)c(Cl)c1C(=O)OCC(=O)Nc1cccc2ccccc12	32.6 µM [falling, single point]	–
Cc1ccccc1-n1c(/C=C/c2ccccn2)nc2ccccc2c1=O	7.08 µM [rising, full curve, poor fit]	–
COC(=O)C1=C(c2ccc(F)cc2F)C[C@@H]2CC[C@H]1N2C(=O)NCCOc1ccccc1Cl	0.517 µM [falling, full curve, poor fit]	–
Nc1c(C(=O)NC2CCCC2)c2nc3ccccc3nc2n1CC1CCCO1 (configuration not stated)	17.8 µM [falling, single point]	–
COc1ccc(N=Nc2c(O)[nH]c(=S)[nH]c2=O)cc1	10 µM [falling, partial curve]	–
O=C(N/N=C/c1c(O)n(CCc2ccc(F)cc2)c(=O)[nH]c1=O)c1ccccc1	1.58 µM [falling, full curve]	–
CC1(C)Cc2c(sc3c2C(=O)NC(c2cccnc2)N3)CO1 (configuration not stated)	5.8 µM [falling, single point]	–
O=C(/C=C/c1ccccc1)NC(=S)N1C[C@H]2C[C@H](C1)c1cccc(=O)n1C2	3.16 µM [rising, partial curve, poor fit]	–
O=C1NC(=O)N(c2ccccc2F)C(=O)/C1=C/c1ccc(Sc2nc3ccccc3[nH]2)o1	0.92 µM [rising, full curve, poor fit]	–
CC1CCN(CC(=O)c2ccc3c(c2)OCCO3)CC1	17.8 µM [falling, partial curve]	–
CC(C(=O)c1ccccc1)N1C(=O)c2ccccc2C1=O (configuration not stated)	13 µM [rising, partial curve, poor fit]	–
CCCCC/C(=N\O)c1c[nH]c2ccccc12	0.0891 µM [rising, full curve, poor fit]	–
Cc1ccccc1-n1c(O)c(/C=N/Nc2nc3c(c(=O)n(C)c(=O)n3C)n2C)c(=O)[nH]c1=S	0.651 µM [falling, partial curve, poor fit]	–
CCCc1cc(C(=O)Nc2cccc(Cl)c2C)no1	10 µM [falling, partial curve]	–
CCc1ccc2nc(N3CCN(C(=O)C4CC4)CC3)sc2c1	2.82 µM [rising, partial curve, poor fit]	–

SMILES	AC50 [1]	AC50 [2]
Cc1ccc(-c2nc3ccccc3c(=O)n2-c2ccc(O)cc2)cc1	5.01 µM [falling, partial curve, poor fit]	–
NC(Cc1nc2ccccc2[nH]1)c1ccc(Cl)cc1 (configuration not stated)	11.2 µM [falling, partial curve, poor fit]	–
COc1cccc(-c2nn(Cc3ccccc3)cc2C(=O)O)c1	4.47 µM [rising, full curve, poor fit]	–
O=C(N1CCN=C1SCc1cccnc1)C12CC3CC(CC(C3)C1)C2	10 µM [falling, partial curve, poor fit]	–
Cc1ccc(S(=O)(=O)N2CCOC2CNC(=O)C(=O)NCCc2ccc(S(N)(=O)=O)cc2)cc1 (configuration not stated)	35.5 µM [rising, single point]	–
C[C@@H]1O[C@@H](O[C@H]2C[C@@H](O)[C@]3(CO)[C@H]4[C@H](O)C[C@]5(C)[C@@H](C6=CC(=O)OC6)CC[C@]5(O)[C@@H]4CC[C@]3(O)C2)[C@H](O)[C@H](O)[C@H]1O	9.2 µM [falling, partial curve] and 326 nM [falling, full curve]	0.517 µM [rising, partial curve]
CCOC(=O)c1c(C)c(C(=O)N2CCC3(CC2)OCCO3)c(C)n1CC	32.6 µM [rising, partial curve, poor fit]	–
O=C(c1ccc2c3c(cccc13)CC2)C1CCCN(CC2CC2)C1 (configuration not stated)	15.8 µM [falling, partial curve, poor fit]	–
CC(C)Oc1ccc(Cc2c(O)[nH]c(=O)[nH]c2=O)cc1	3.55 µM [rising, partial curve, poor fit]	–
Cc1ccc(-c2nc3ccc(Cl)cc3n2OC(=O)N(C)C)cc1	3.26 µM [rising, partial curve, poor fit]	–
O=C1NC(=O)N(c2ccccc2F)C(=O)/C1=C/c1ccc(Oc2ccc([N+](=O)[O-])cn2)cc1	35.5 µM [falling, single point]	–
COc1cccc(C2C([N+](=O)[O-])=C(N)Oc3c2c(=O)oc2ccccc32)c1 (configuration not stated)	1.64 µM [falling, full curve, poor fit]	–
COc1ccc(/C=C/C2=CCN(C)CC2)cc1	14.1 µM [rising, partial curve, poor fit]	–
CC1CC(OP(O)(=S)c2ccc(N(C)C)cc2NC(=O)c2cccs2)CC(C)(C)C1 (configuration not stated)	31.6 µM [rising, single point]	–
O=C(CN1CCCCC1)c1cccc(Br)c1	0.82 µM [falling, partial curve, poor fit]	–
O=c1c2ccccc2nc(/C=C/c2ccccc2)n1-c1ccc(O)cc1	4.47 µM [falling, partial curve, poor fit]	–
C=CCn1c(O)c(C(CC)=NCCc2c[nH]c3ccccc23)c(=O)[nH]c1=O	10 µM [falling, partial curve, poor fit]	–
O=C(CSC1c2ccccc2-c2ccccc21)N/N=C/c1ccc(C(=O)O)cc1	10 µM [falling, partial curve, poor fit]	–
COc1ccc2[nH]c3c(c2c1)CCN[C@H]3C	11.2 µM [falling, single point]	–
CCC(=Nc1ccc2c(c1)CCC2)c1c(O)n(-c2ccc(OC)cc2)c(=O)[nH]c1=O	0.708 µM [rising, full curve, poor fit]	–
CN(C)c1nnnn1-c1ccc(Oc2ncc(C(F)(F)F)cc2Cl)cc1	25.1 µM [falling, single point]	–

Four records picked at random from the list so far, as already listed:
SMILES	AC50 [1]	AC50 [2]
C=CCn1c(O)c(C(CC)=NCCc2c[nH]c3ccccc23)c(=O)[nH]c1=O	10 µM [falling, partial curve, poor fit]	–
O=C(CN1CCCCC1)c1cccc(Br)c1	0.82 µM [falling, partial curve, poor fit]	–
CC1CC(OP(O)(=S)c2ccc(N(C)C)cc2NC(=O)c2cccs2)CC(C)(C)C1 (configuration not stated)	31.6 µM [rising, single point]	–
CCOC(=O)c1c(C)c(C(=O)N2CCC3(CC2)OCCO3)c(C)n1CC	32.6 µM [rising, partial curve, poor fit]	–

Following part

SMILES	AC50 [1]	AC50 [2]
Nc1c2c(nc3sc4c(c13)CCCC4)CCCC2	20 µM [falling, single point]	–
Fc1ccc(C(OCCN2CCCC2)c2ccc(Br)cc2)cc1 (configuration not stated)	14.1 µM [falling, partial curve]	–
CC1CN(CC(=O)c2ccccc2Cl)CC(C)O1 (configuration not stated)	–	14.1 µM [falling, partial curve, poor fit]
CCOP(=O)(OCC)C(NC(=O)Nc1ccc(Cl)c(Cl)c1)c1ccccc1 (configuration not stated)	23.1 µM [falling, single point]	–
NC(=O)c1cn(C2OC(CO)C(O)C2O)c2ncnc(N)c12 (configuration not stated)	3.26 µM [falling, partial curve, poor fit]	–
Cn1c(O)c(/C=C2\C=c3ccccc3=NC2=O)c(=O)n(C)c1=O	11.2 µM [falling, partial curve, poor fit]	–
Fc1ccccc1CCNCc1cccc(Cl)c1Cl	11.2 µM [rising, partial curve, poor fit]	–
Cc1sc(C(=O)Nc2ccc3ccccc3c2)cc1CC(=O)O	7.94 µM [falling, partial curve, poor fit]	–
Cc1c(NP(=O)(C(C)(C)C)C(C)(C)C)c(=O)n(-c2ccccc2)n1C	35.5 µM [rising, partial curve, poor fit]	–
O=C1NC(=O)C(=Cc2cccc(OCCOc3ccccc3)c2)C(=O)N1	11.2 µM [falling, partial curve, poor fit]	–
COCCN1Cc2cc(=O)n3c([nH]c4ccccc43)c2C1=N	28.2 µM [falling, partial curve, poor fit]	–
CCOc1ccccc1NC(=O)Cn1c(=O)oc2ccccc21	35.5 µM [falling, single point]	–
O=C(c1ccccc1)C(CN1CCCC1)c1ccccc1 (configuration not stated)	9.2 µM [falling, partial curve]	–
COc1ccc(/C=C2\C(=O)NC(=O)N(Cc3ccccc3)C2=O)c(OC)c1OC	35.5 µM [falling, single point]	–
Cc1cc(O)c2c3c(c(=O)oc2c1)CCC(C)C3 (configuration not stated)	11.2 µM [rising, partial curve, poor fit]	–
COc1ccc([N+](=O)[O-])c(S(=O)(=O)c2ccccc2)n1	11.2 µM [falling, partial curve]	–
CCCCOP(=O)(c1ccc(N(C)C)cc1)C(Nc1ccccc1)c1ccccc1 (configuration not stated)	16.4 µM [falling, partial curve]	–
COC1CC(OC2CCC3(C)C(CCC4C3CCC3(C)C(C5=CC(=O)OC5)C(OC(C)=O)CC43O)C2)OC(C)C1OC1OC(COC2OC(CO)C(O)C(O)C2O)C(O)C(O)C1O (configuration not stated)	0.631 µM [rising, partial curve]	–
Nc1c(Cl)cc([N+](=O)[O-])cc1Cl	20.6 µM [rising, single point]	–

Source: PubChem BioAssay AID493014 (National Center for Advancing Translational Sciences (NCATS), 2011)
